Measurements reported in PubChem BioAssay AID652259 (Drosophila RNAi Screening Center, 2013).

Purpose: 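Identify new Wingless signalling regulators in fly cells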 (primary screen)
System: Drosophila clone 8 imaginal disc epithelial cells
Reagent: long dsRNA against Drosophila genes
Conditions: pathway stimulated by co-transfected Wingless expression plasmid
Measured: 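Firefly luciferase from a tcf-site Wingless reporter, measured alongside co-transfected Renilla luciferase that tracks transfection; pathway stimulated by a Wingless plasmid; the firefly-to-Renilla ratio is not deposited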
Reading the numbers: firefly reporter light: higher = more Wg reporter light, before normalisation; Renilla control light: higher = more transfected or surviving cells
Hit rule: 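a knock-down is a candidate when at least two out of four statistical tests show it departing from its plate mean; one test alone signals a weak candidate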
Meaning of the calls: active = candidate regulator (raises or lowers reporter); inactive = not a candidate
In all, the deposit lists about 22,000 reagents; this is an unselected part of those with a known target gene and a result. Over the whole deposit, 233 (1.1%) are marked active. 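Light values are raw, unnormalised plate reads; the ratio scores behind the reporter calls were not deposited.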 A number with no mark means an inactive call. The numbers tell different reagents against one gene apart. Names joined by + are all predicted targets of the reagent. Not stated in the record: the amount of reagent, the time to read-out, the dose of the treatment.

target gene | dsRNA no. | reporter change call, replicate 1 | firefly reporter light, replicate 1 | firefly reporter light, replicate 2 | Renilla control light, replicate 1 | Renilla control light, replicate 2
CG10984 | 1 | – | 3783 | – | 2903 | –
CG2493 | 1 | – | 10486 | – | 3290 | –
CG10834 | 1 | – | 2291 | 5853 | 777 | 2242
CG11141 | 1 | – | 15296 | – | 4240 | –
CG12768 | 1 | Wg reporter activity raised (active) | 22808 | – | 3264 | –
CG6432 | 1 | – | 3132 | 4050 | 1664 | 1312
CG8086 | 1 | – | 11376 | – | 5249 | –
CG8086 | 2 | – | 2410 | 6666 | 792 | 3024
ZnT49B | 1 | – | 7815 | – | 1968 | –
upd3 | 1 | – | 22984 | – | 10328 | –
upd3 | 2 | – | 24711 | – | 10621 | –
upd3 | 3 | – | 5.65e5 | 5.26e5 | 1.61e5 | 1.58e5
CG43397 + CG12902 | 1 | – | 3184 | 8923 | 710 | 3430
CG15201 | 1 | – | 25059 | – | 9888 | –
P5CS | 1 | – | 6999 | – | 3667 | –
P5CS | 2 | – | 11360 | – | 4471 | –
CG7685 | 1 | – | 17692 | – | 3036 | –
CG5543 | 1 | – | 8657 | – | 3204 | –
CG15547 | 1 | – | 8072 | – | 2580 | –
CG8677 + CG31626 | 1 | – | 12672 | – | 14598 | –
eIF3f2 | 1 | – | 3955 | 7715 | 1249 | 3712
CG2901 | 1 | – | 13072 | – | 7858 | –
CG14160 | 1 | – | 6619 | – | 3031 | –
ATPsynepsilonL | 1 | – | 9868 | – | 4544 | –
bol | 1 | – | 2392 | – | 1592 | –
bol | 2 | – | 2643 | 9520 | 1554 | 3961
bol | 3 | – | 3747 | 6586 | 2224 | 4048
Cpr65Az | 1 | – | 1896 | 12344 | 1638 | 6321
Cpr65Az | 2 | – | 6.94e5 | 6.58e5 | 2.57e5 | 2.41e5
CtIP | 1 | – | 23008 | – | 6304 | –
CG17266 | 1 | – | 3332 | 11569 | 1120 | 4311
CG17266 | 2 | – | 5.51e5 | 5.79e5 | 3.00e5 | 3.02e5
RpS5a | 1 | – | 2384 | 6066 | 1008 | 2592
Sas-4 | 1 | – | 11917 | – | 2448 | –
Crtp | 1 | – | 3632 | 9561 | 955 | 3062
Pp2A-29B | 1 | – | 3348 | 10406 | 1325 | 4348
CG3708 | 1 | – | 26166 | – | 14424 | –
CG15260 | 1 | – | 3260 | 5293 | 1217 | 2743
CtsB | 1 | – | 2619 | 5389 | 1094 | 1740
CG11360 | 1 | – | 3947 | – | 1258 | –
CG11360 | 2 | – | 17277 | – | 14599 | –
CG5334 | 1 | – | 26768 | – | 10473 | –
ttv | 1 | – | 15576 | – | 3651 | –
CG34041 | 1 | – | 7.23e5 | 7.17e5 | 3.42e5 | 3.56e5
CG42382 | 1 | – | 2352 | 9301 | 605 | 3595
Kat60 | 1 | – | 9511 | – | 2208 | –
dia | 1 | – | 4005 | 5498 | 881 | 1744
Unr | 1 | – | 4588 | – | 1875 | –
Unr | 2 | – | 7.97e5 | 8.57e5 | 4.35e5 | 1.50e5

In a second layout: results already given
target gene	dsRNA no.	reporter change call, replicate 1	firefly reporter light, replicate 1	firefly reporter light, replicate 2	Renilla control light, replicate 1	Renilla control light, replicate 2
CtIP	1		23008		6304	
CG17266	1		3332	11569	1120	4311
CG17266	2		5.51e5	5.79e5	3.00e5	3.02e5
RpS5a	1		2384	6066	1008	2592
Sas-4	1		11917		2448	
